# Library screening results

Data taken from ChEMBL document CHEMBL3988442, “University of Dundee, Small-Polar-MMV Screening Library” (2021).

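Viability assay of Plasmodium falciparum sporozoites; the read-out is not stated. The concentration is filed as 10 mM, unlikely as a test dose, so the dose is not known. Direction is inferred from retests: higher values go with lower viability. Strong results were mostly tested again. Size under these conditions: about 34,000 compounds, about 280 of them at 50% or above in at least one test.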

The filed quantity is “Percent Effect” (%).
The controls that fix the scale are not given in the record; negative values are as filed.
The compounds are a random part of those screened.
Two or more numbers in one place are separate tests of the same structure; such repeats can differ widely.

| Compound | effect |
|---|---|
| `Cc1cccc(-c2nnn3c2COC(CNCc2nccs2)C3)c1.O=C(O)C(F)(F)F` (stereo not given) | -8.54 |
| `Cn1ccc(C(=O)NCc2cccc(N3CCCCC3=O)c2)cc1=O` | 9.778 |
| `O=C([C@H]1CCCO1)N1Cc2nccn2CC(COc2cccnc2)C1` (stereo not given in full) | 8.432 |
| `COCc1ncn2c1CN(C(=O)c1cccc3cccnc13)CC2.O=C(O)C(F)(F)F` | 14.3 |
| `COc1cc(C(=O)Nc2nc(C)no2)ccc1OC(F)F` | 3.253 |
| `O=C(Cc1c[nH]c2ccccc12)N1CCC(Nc2cccnc2)CC1` | 1.481 |
| `CCC(CCO)NS(=O)(=O)c1ccc(Br)cn1` (stereo not given) | 0.5562 |
| `OCC1CCCN1c1cc(NCCNc2cccnn2)ncn1` (stereo not given) | 9.971 and -4.087 |
| `Cc1noc(C)c1CCC(=O)NCC1(O)CCCN(c2ccccn2)C1` (stereo not given) | -0.1937 |
| `Cc1nc(-c2ccccc2)n(CC(=O)NC2CCCCC2)n1` | 2.342 |
| `COc1ccccc1C(=O)N1CCCC1Cn1cc(C)cn1` (stereo not given) | 4.8 |
| `COCCCn1cnnc1CNc1cc(C)nc2ccnn12` | 10.35 |
| `Cc1nc(C)n(CC2CCCN2CCOc2ccc(C#N)cc2)n1` (stereo not given) | 0.5757 |
| `COCCOc1cc(C)ccc1NC(=O)N(C)Cc1cnn(C)c1` | 10.05 |
| `CC(=O)N1CCCN(C(=O)NCc2cc[nH]n2)CC1` | 14.26 |
| `Cc1ccccc1C(=O)N1C[C@@H](O)[C@H](N2CCOCC2)C1` | -0.06333 |
| `COc1c(CNCC(O)c2cccc(F)c2)c(C)nn1C` (stereo not given) | 1.599 |
| `CCc1nccn1C1CCCN(C(=O)c2ccc3nncn3c2)C1` (stereo not given) | 6.214 |
| `CCOc1cccc(C(=O)N(CCC#N)Cc2ccccn2)c1` | -11.76 |
| `O=C(O)C(F)(F)F.[H][C@@]12CCN(S(=O)(=O)c3cccc(C)c3)C[C@]1([H])[C@@H](CN(C)C)OC2` | -16.29 |
| `CCOc1ccccc1CNC(=O)N1CCC(n2cncn2)CC1` | -0.7455 |
| `Cn1cc(CN2CCCC3(CCN(C(=O)c4ccccn4)C3)C2)cn1.O=C(O)C(F)(F)F.O=C(O)C(F)(F)F.O=C(O)C(F)(F)F` (stereo not given) | 0 |
| `Cc1cc(CN2CCN(C(=O)NCc3ccc(C)s3)CC2)on1` | 6.287 |
| `O=C(O)C(F)(F)F.c1ccc(CN2CCc3c(CNc4nccs4)n[nH]c3C2)nc1` | -11.59 and -12.02 |
| `[H][C@@]12COC[C@]1(COCc1cccnc1)CN(C(=O)c1cnn(C)c1)C2` | -0.3352 |
| `O=C(c1cc2c([nH]c1=O)CCC2)N1CCCC1c1ccccc1` (stereo not given) | 10.06 |
| `Cc1nnc(NC(=O)NCc2ccc(OC(C)C)nc2)s1` | -1.262 |
| `Cc1noc(C(C)C)c1C(=O)NCCCN1CCCCCC1=O` | 6.376 |
| `O=S1(=O)NC(c2ccnc(N3CCCC3)n2)=Nc2ccccc21` | 3.314 |
| `Cc1cc(C)nc(N2CCC(c3cccc(CCC(=O)O)n3)CC2)n1` | 6.595 |
| `O=C(O)C(F)(F)F.O=C(O)C(F)(F)F.c1cncc(C2COC3(CCN(Cc4nccs4)CC3)C2)c1` (stereo not given) | 11.67 |
| `Cc1cc(C2CCCN2Cc2cc(=O)n(C)c(=O)n2C)on1` (stereo not given) | -1.961 |
| `CCn1cc(S(=O)(=O)N(C)Cc2c(Br)cnn2CC)c(C)n1` | -6.596 |
| `CC(C)NC(=O)C1CN(C(=O)N(C)C)CC12CCOCC2` (stereo not given) | -0.7005 |
| `Cn1cncc1CN1CCCC1c1cncc(Oc2ccc(F)cc2)n1` (stereo not given) | 5.89 |
| `COc1cc(CCC(=O)N2CCC(c3cnccn3)CC2)on1` | 10.32 |
| `CC(C)(C)c1nc(CN(Cc2cccs2)CC2CCCO2)no1` (stereo not given) | 7.201 |
| `Cc1n[nH]c(C2CN(C(=O)c3ccnc(C4CC4)n3)CCO2)n1` (stereo not given) | -20.56 and -11.1 and -20.42 |
| `O=C(O)C(F)(F)F.O=c1ccc2c([nH]1)CCC(NCc1ccc(F)cc1)C2` (stereo not given) | 6.404 |
| `CCn1cc(CN2CCN(CC(O)c3ccc(C)cc3C)CC2)c(C)n1` (stereo not given) | 3.708 |
| `Cc1nn(C)c(N(C)C)c1CNCc1ccccc1CO` | 4.105 |
| `CCc1nnc2ccc(NCC3(O)CCOCC3)nn12` | -11.53 |
| `N#Cc1ccc(CN2CCC(c3ccnn3CCO)CC2)cc1` | 6.601 |
| `O=C(O)c1cncc(Cc2ccc(F)cc2)c1` | 0.4995 |
| `O=C(N1CCCC(n2cncn2)C1)C1(c2cccc(F)c2)CCC1` (stereo not given) | 0.3798 |
| `CCOc1ccccc1C(CC(=O)Nc1ccncc1)NC(C)=O` (stereo not given) | 4.071 |
| `CN(C)CCOCC1CN(Cc2ccsc2)Cc2ccnn2C1.O=C(O)C(F)(F)F.O=C(O)C(F)(F)F.O=C(O)C(F)(F)F` (stereo not given) | -3.468 |
| `O=C(NCc1ccccc1CN1CCCC1)Nc1nncs1` | -10.74 |
| `CNC(=O)C1CN(C(C)C)CCN1c1ncccn1` (stereo not given) | -0.6113 |
| `O=C(c1cccc(S(=O)(=O)NCCc2nccs2)c1)N1CCOCC1` | 0.4386 |
| `Cc1nnc(NC(=O)CN2CCCC(Cn3cncn3)C2)s1` (stereo not given) | -9.804 |

For reference, 6 entries once more:

Compound,effect
COc1cc(C(=O)Nc2nc(C)no2)ccc1OC(F)F,3.253
O=C(Cc1c[nH]c2ccccc12)N1CCC(Nc2cccnc2)CC1,1.481
Cc1noc(C)c1CCC(=O)NCC1(O)CCCN(c2ccccn2)C1 (stereo not given),-0.1937
Cc1cccc(-c2nnn3c2COC(CNCc2nccs2)C3)c1.O=C(O)C(F)(F)F (stereo not given),-8.54
COCCOc1cc(C)ccc1NC(=O)N(C)Cc1cnn(C)c1,10.05
Cc1cc(C)nc(N2CCC(c3cccc(CCC(=O)O)n3)CC2)n1,6.595